According to article PMC6385231, “Activity-Regulated Cytoskeleton-Associated Protein (Arc/Arg3.1) is Transiently Expressed after Heat Shock Stress and Suppresses Heat Shock Factor 1” (Scientific Reports, 2019):
No constants are given. Whether binding was seen depends on the method and setting. Binding seen in cells or lysates may run through a third protein. Some binding calls cover weakened binding; strength is not graded here. Sequences can lack the tags named with a protein.

Protein sequences, listed by entry. Tags and fused reporters are not part of them.
UniProt P15311: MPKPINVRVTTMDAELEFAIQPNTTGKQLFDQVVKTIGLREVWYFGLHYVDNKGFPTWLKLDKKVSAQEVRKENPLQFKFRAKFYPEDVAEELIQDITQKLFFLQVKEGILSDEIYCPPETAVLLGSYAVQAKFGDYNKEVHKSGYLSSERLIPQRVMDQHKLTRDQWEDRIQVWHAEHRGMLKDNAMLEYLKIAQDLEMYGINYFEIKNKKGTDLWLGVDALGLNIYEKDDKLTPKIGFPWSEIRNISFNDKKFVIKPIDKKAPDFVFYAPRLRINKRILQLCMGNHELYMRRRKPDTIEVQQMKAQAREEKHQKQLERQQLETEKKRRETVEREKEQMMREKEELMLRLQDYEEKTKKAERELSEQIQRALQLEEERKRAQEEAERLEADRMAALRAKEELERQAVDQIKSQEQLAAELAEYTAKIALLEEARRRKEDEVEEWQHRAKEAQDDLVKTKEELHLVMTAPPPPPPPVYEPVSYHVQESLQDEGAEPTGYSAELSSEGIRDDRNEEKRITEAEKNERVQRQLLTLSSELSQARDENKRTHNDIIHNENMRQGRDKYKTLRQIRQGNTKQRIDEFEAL
UniProt Q00613: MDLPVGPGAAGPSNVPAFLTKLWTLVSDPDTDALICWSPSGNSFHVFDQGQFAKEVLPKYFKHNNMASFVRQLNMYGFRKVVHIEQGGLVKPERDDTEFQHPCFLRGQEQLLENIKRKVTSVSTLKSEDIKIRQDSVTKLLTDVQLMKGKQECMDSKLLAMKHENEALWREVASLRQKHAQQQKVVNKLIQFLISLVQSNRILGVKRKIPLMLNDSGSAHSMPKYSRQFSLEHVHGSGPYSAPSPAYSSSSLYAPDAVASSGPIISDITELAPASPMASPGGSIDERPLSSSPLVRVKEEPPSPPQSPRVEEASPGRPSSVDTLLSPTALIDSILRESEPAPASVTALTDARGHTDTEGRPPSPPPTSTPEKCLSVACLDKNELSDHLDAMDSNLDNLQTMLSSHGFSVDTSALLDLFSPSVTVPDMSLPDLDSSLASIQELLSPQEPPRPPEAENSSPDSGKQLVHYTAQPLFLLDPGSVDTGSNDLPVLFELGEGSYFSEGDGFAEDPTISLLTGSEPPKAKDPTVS

Assays:
[1] = molecular target: T1, Flag-tagged human Arc/Arg3.1 (activity-regulated cytoskeleton-associated protein) (human) (UniProt Q7LC44); experiment: co-IP; HEK293T cells co-transfected, heat shock at 45°C for 15 min; lysate immunoprecipitated with anti-Flag antibody and protein-G sepharose at 4°C; Western analysis with anti-HA and anti-Flag
T1 sequence: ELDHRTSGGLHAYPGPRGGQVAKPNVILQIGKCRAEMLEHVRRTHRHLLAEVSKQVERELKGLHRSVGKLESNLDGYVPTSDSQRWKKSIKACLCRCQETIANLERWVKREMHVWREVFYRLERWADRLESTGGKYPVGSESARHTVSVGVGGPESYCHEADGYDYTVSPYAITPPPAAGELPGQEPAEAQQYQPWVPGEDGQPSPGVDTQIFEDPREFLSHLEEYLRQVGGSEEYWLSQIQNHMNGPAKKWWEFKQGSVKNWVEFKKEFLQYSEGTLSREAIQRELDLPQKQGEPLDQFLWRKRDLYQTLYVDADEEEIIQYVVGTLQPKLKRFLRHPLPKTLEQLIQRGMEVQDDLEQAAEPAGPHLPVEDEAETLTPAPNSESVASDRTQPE

[2] = molecular target: T1, Flag-tagged human Arc/Arg3.1 (activity-regulated cytoskeleton-associated protein) (human); experiment: co-IP; HEK293T cells co-transfected, control cells without heat shock; lysate immunoprecipitated with anti-Flag antibody and protein-G sepharose at 4°C; Western analysis with anti-HA and anti-Flag

Row | Substance | binding [1] | binding [2]
1 | HA-ezrin (from UniProt P15311 1-586) | no binding | no binding
2 | HA-tagged heat shock factor 1 (from UniProt Q00613 1-529) | binds | no binding (condition: cells without heat shock)
